Measurements from PubChem BioAssay AID504467 (National Center for Advancing Translational Sciences (NCATS), 2011).
About 7,700 (2.3%) of roughly 330,000 compounds were called active. Inconclusive results, whose numbers are uncertain, are shown with a selection of clear calls. Calls come from the whole dose curve; as a rule, active = well fitted inhibition curve with a large enough effect; inconclusive = small, poorly fitted or top-dose-only effect, or effect the other way; inactive = flat fitted curve, though single readings scatter. A potency beside an inconclusive call is a rough fit, not a confirmed value.

assay: qHTS screen for small molecules that inhibit ELG1-dependent DNA repair in human embryonic kidney (HEK293T) cells expressing luciferase-tagged ELG1; conditions: HEK293T ELG1-luciferase reporter, luminescence, 16 h, DNA damage induced by 5-fluorouridine; series mostly up to 46.1 µM; note: nearly all actives have a fitted effect of over 55% in size
Summary of the method: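 In this reporter screen, reduction of luminescence relative to DMSO vehicle indicated activity. Compounds and 5-fluorouridine were added together to 2,000 cells per well, incubated for 16 hr at 37 °C, then developed with ONE-Glo.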
Potency is the fitted concentration of half-maximal effect.

SMILES | Potency
CNC(=O)CSc1nnc(-c2ccccn2)n1Cc1ccco1 | inactive
CN1CCN(c2ccc(NC(=O)c3ccc(-c4ccc(Cl)cc4)o3)cc2)CC1 | inconclusive: 29.1 µM [inhibitor, single point]
N/C(=N\OC(=O)C(c1ccccc1)c1ccccc1)c1ccncc1 | inactive
CCOc1ccc(CCNC(=O)c2cccc(S(=O)(=O)N3CCCCC3)c2)cc1OCC | inconclusive: 20.6 µM [inhibitor, partial curve, poor fit]
CC(=O)c1ccc(NC(=O)c2ccc(CSc3ccccc3)o2)cc1 | inconclusive: 29.1 µM [inhibitor, single point]
O=C(Nc1ccc(-c2noc(-c3cccs3)n2)cc1)c1cccnc1 | inconclusive: 2.31 µM [activator, partial curve]
COc1ccc(S(=O)(=O)Nc2ccc(-c3ccc4nnc(C)n4n3)cc2)c(OC)c1 | inconclusive: 1.46 µM [activator, full curve, poor fit]
O=C(CSC1=NCCS1)Nc1ccc2ccccc2c1 | inconclusive: 23.1 µM [activator, partial curve]
COc1cc(/C=C(\C#N)c2ccccn2)ccc1OCC(=O)Nc1cccc(C(F)(F)F)c1 | inconclusive: 18.4 µM [activator, single point]
COc1cc(OC)cc(-c2c(-c3cccs3)c3cc(-c4ccc(N(C)C)nc4)ccc3n2C)c1 | inactive
CC(=O)Nc1ccc(/C=C/c2nc3ccccc3o2)cc1 | inconclusive: 2.31 µM [activator, full curve]
Cc1ccc(S(=O)(=O)N2CCOCC2)cc1C(=O)OCCOc1cccc(Cl)c1 | inconclusive: 13 µM [inhibitor, single point]
CCOC(=O)c1cccc(NC(=O)c2ccc3c(c2)C(=O)N(CC2CCCO2)C3=O)c1 (stereo unspecified) | inactive
CC(=O)c1cc(NC(=O)c2cccc(C(F)(F)F)c2)c(=O)oc1/C=C/N(C)C | inactive
COc1ccc(-c2csc(Nc3ccccc3)[n+]2CC(O)c2ccc([N+](=O)[O-])cc2)cc1 (stereo unspecified) | active: 20.6 µM
Cc1ccc(-c2cc(C(=O)N3CC(C)CC(C)C3)c3ccccc3n2)o1 (stereo unspecified) | inactive
Brc1ccc(-c2nc(-c3ccccc3)no2)o1 | inconclusive: 16.4 µM [activator, partial curve]
Cc1cc(/C=C2\SC(N)=NC2=O)c(C)n1-c1ccc(F)cc1 | inconclusive: 7.3 µM [activator, partial curve, poor fit]
Oc1ccc(Cl)cc1CNCc1ccc(Cl)nc1 | inactive
CCCOc1ccc(C(=O)NC(=S)NNC(=O)c2c(-c3ccccc3)noc2C)cc1 | active: 7.3 µM
O=C1OCC(c2ccccc2)=C1c1ccc(S(=O)(=O)N2CCOCC2)s1 | inconclusive: 0.291 µM [activator, partial curve, poor fit]
CC(NS(=O)(=O)c1ccc(OCC(=O)Nc2cccc([N+](=O)[O-])c2)cc1)c1ccccc1 (stereo unspecified) | inconclusive: 29.1 µM [inhibitor, single point]
CCOC(=O)C1CCN(C(=O)c2cn(-c3ccccc3)nc2-c2cccnc2)CC1 | inconclusive: 23.1 µM [inhibitor, partial curve, poor fit]
COc1ccc(N2CCN(C(=O)CCc3nnc4ccc(N5CCC(C)CC5)nn34)CC2)cc1 | inactive

By substructure: the entries above containing a CF3 group
SMILES | Potency
COc1cc(/C=C(\C#N)c2ccccn2)ccc1OCC(=O)Nc1cccc(C(F)(F)F)c1 | inconclusive: 18.4 µM [activator, single point]
CC(=O)c1cc(NC(=O)c2cccc(C(F)(F)F)c2)c(=O)oc1/C=C/N(C)C | inactive

Further compounds:

SMILES | Potency
CCOC(=O)c1cc(CC)sc1NC(=O)c1cc(OCC)c(OCC)c(OCC)c1 | inactive
COc1ccc(-c2ccc(NS(=O)(=O)c3cc([N+](=O)[O-])ccc3C)cc2)nn1 | inactive
CC(C)C/C(O)=C/c1nc2cc(Cl)ccc2oc1=O | inactive
Cc1ccc(OCC(=O)c2ccc3c(c2)CCCC3)cc1C | inconclusive: 14.6 µM [activator, partial curve]
CC(=O)c1cccc(NC(=O)Cn2cnc(S(=O)(=O)N3CCC(C)CC3)c2)c1 | inactive
COC(CNC(=O)C1CCCN(S(=O)(=O)c2c(C)noc2/C=C/c2cccs2)C1)OC (stereo unspecified) | inactive
COC(=O)/C=C1/N/C(=N\c2nc(C)cc(C)n2)N(c2cccc(C)c2)C1=O | inactive
CSc1nc2ccccc2n1Cc1cccc([N+](=O)[O-])c1 | inconclusive: 8.2 µM [activator, partial curve, poor fit]
O=C(CSc1nnc2c(Cl)cc(Cl)cn12)NC1CCS(=O)(=O)C1 (stereo unspecified) | inconclusive: 23.1 µM [activator, partial curve, poor fit]
CC1CCCC(C)N1C(=O)C1CC(c2ccc(F)cc2)=NO1 (stereo unspecified) | inconclusive: 23.1 µM [activator, partial curve, poor fit]
Cc1cc(C)c(NC(=O)CSc2nnc(-c3ccccn3)n2N)c(Cl)c1 | inactive
O=C(CCn1c(=O)oc2ccccc21)Nc1ccccc1 | inactive
CCCCCCOc1ccc(OC(=O)c2cccnc2)cc1 | inconclusive: 20.6 µM [activator, partial curve, poor fit]
COc1ccc(OC)c2[nH]c(=O)c(CCNC(=O)C(=O)c3c(C)[nH]c4ccccc34)cc12 | inconclusive: 25.9 µM [inhibitor, single point]
Cc1ccc(S(=O)(=O)N(C)CC(=O)N2CCN(Cc3ccc4c(c3)OCO4)CC2)cc1 | inconclusive: 23.1 µM [inhibitor, single point]
O=C(CSc1nnc2ccccn12)c1ccc(OC(F)F)cc1OC(F)F | inconclusive: 16.4 µM [activator, single point]
COc1cc(CNCc2ccccn2)ccc1OCc1c(Cl)cccc1Cl | inconclusive: 18.4 µM [inhibitor, single point]
O=C(N/N=C\c1ccc(F)cc1)c1ccc(Cn2cc(Br)c([N+](=O)[O-])n2)o1 | inconclusive: 29.1 µM [inhibitor, single point]
CNC[C@H]1Oc2ccc(NC(=O)C3CCCCC3)cc2CC(=O)N([C@H](C)CO)C[C@@H]1C | inconclusive: 9.2 µM [activator, partial curve, poor fit]
COc1ccc(OCCCC(=O)Nc2cccc([N+](=O)[O-])c2)cc1 | inactive
C/C(=N\NC(=O)c1cc2ccccc2cc1O)c1cccs1 | inconclusive: 0.73 µM [activator, full curve]
COc1ccc2[nH]c(=O)c(CN(C(=O)c3cccnc3)c3ccccc3)cc2c1 | inactive
COc1cc([N+](=O)[O-])ccc1NC(=O)NNC(=O)C(C)Oc1ccc(F)cc1F (stereo unspecified) | inconclusive: 23.1 µM [inhibitor, partial curve, poor fit]
CCOC(=O)c1ccc(NC(=S)N(CCN(C)C)Cc2cccs2)cc1 | inconclusive: 0.651 µM [inhibitor, single point]

SMILES | Potency
CCn1nc(C(=O)N[C@@H](CCSC)c2nc3ccccc3[nH]2)c2ccccc2c1=O | inactive
C/C(=N/NC(=O)c1cc(-c2ccc(Br)s2)[nH]n1)c1ccco1 | inactive
O=C(NCCSc1ncc(-c2ccc(F)cc2)[nH]1)c1ccco1 | inactive
Cc1ccccc1NC(=S)NC(NC(=O)COc1ccccc1)C(Cl)(Cl)Cl (stereo unspecified) | inactive
Cc1nnc(NC(=O)c2nc(S(=O)(=O)Cc3ccccc3C)ncc2Cl)s1 | active: 20.6 µM
COc1ccc(N=N/C(=C\O)C(=O)c2ccco2)cc1 | inconclusive: 16.4 µM [activator, single point]
CCn1c(CCNC(=O)c2cccs2)nnc1SCC(=O)Nc1nc(-c2ccccc2)cs1 | active: 23.1 µM
CCOC(=O)c1c(NC(=O)C2C3C=CC(C3)C2C(=O)O)sc2c1CCC(C)C2 (stereo unspecified) | inactive
C=CCn1c(Cc2csc(N)n2)nnc1SCc1ccc(C(=O)OC)cc1 | inconclusive: 10.3 µM [activator, partial curve, poor fit]
Cc1cc(C)n(-c2ccc(C(=O)Nc3cccc(S(=O)(=O)N4CCCC4)c3)cc2)n1 | inconclusive: 14.6 µM [inhibitor, partial curve, poor fit]
O=C(COc1ccc(/C=N/NC(=O)c2cc3ccccc3o2)cc1Cl)Nc1ccccc1 | inconclusive: 2.06 µM [activator, partial curve]
Cc1ccc(S(=O)(=O)N(CC(=O)NCc2cccnc2)c2ccc(F)cc2)cc1 | inactive
COc1cccc(N(C(=O)c2snc(C(N)=O)c2N)C(C(=O)NCC2CCCO2)c2cccs2)c1 (stereo unspecified) | inactive
O=C(O)c1ccccc1OCCOc1ccccc1 | inconclusive: 7.31 µM [activator, partial curve, poor fit]
Nc1cc(=O)[nH]c(SCCOc2ccccc2)n1 | inactive
Nc1nc(SCC(=O)Nc2ccccc2-c2ccccc2)n[nH]1 | inactive
O=C(Nc1ccc(Nc2ccncc2)cc1)c1ccc([N+](=O)[O-])cc1 | inconclusive: 2.06 µM [inhibitor, partial curve, poor fit]
CC(C)CCC(O)(CCC(C)C)C(=O)NNc1ccccc1 | inconclusive: 16.4 µM [inhibitor, partial curve, poor fit]
CC(Oc1ccccc1)C(=O)NC1=NCCS1 (stereo unspecified) | inconclusive: 13 µM [activator, partial curve]
COc1ccc2sc(C)[n+](C)c2c1 | inactive
CC(=O)c1sc(C(C)(C)C)cc1NC(=O)c1ccccc1C(=O)O | inconclusive: 20.6 µM [activator, single point]
CCOc1ccc(CCNC(=O)CCS(=O)(=O)c2ccc(OC)cc2)cc1OCC | inactive
Cc1cc(N2CCN(c3ccccc3Cl)CC2)n2cc(-c3ccccc3)nc2n1 | inconclusive: 25.9 µM [inhibitor, single point]
